Source: PubChem BioAssay AID686943 (Drosophila RNAi Screening Center, 2013)
Purpose: 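Search across the genome for regulators of signalling from receptor tyrosine kinase to ERK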 (primary screen). System: Drosophila S2R+ haemocyte-like cells expressing YFP-tagged ERK (Rolled). Knock-down reagent: long dsRNA against Drosophila genes. Treatment: insulin stimulation versus unstimulated cells; dose and duration not given. Measurement: 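Per-plate z-scores of phospho-ERK immunostaining normalised to YFP-tagged ERK, measured with and without insulin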. Scale: replicate 1, z-score of dpERK with insulin and replicate 2, z-score of dpERK with insulin: higher = more active ERK per ERK-YFP after insulin.
The deposit covers about 23,000 reagents; shown is an unselected part of those with a known target gene and a result. 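Extra replicates exist only for a retested subset of genes; insulin dose and duration not given; both raised and lowered dpERK matter.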 Reagents against one gene are numbered here. Further read-outs or replicates are left out here. The record does not give: the amount of reagent, the time to read-out.

The first 3 records, ahead of the listing:
Gene | reagent | replicate 1, z-score of dpERK with insulin | replicate 2, z-score of dpERK with insulin
Tdc1 (Tyrosine decarboxylase 1) | 1 | -1.66 | -0.06
RhoL (Rho-like) | 1 | -1.63 | -2.55
ND-24 (NADH dehydrogenase (ubiquinone) 24 kDa subunit) | 1 | 0.27 | 0.45

Main list, from the first entry:
Gene | reagent | replicate 1, z-score of dpERK with insulin | replicate 2, z-score of dpERK with insulin
Tdc1 (Tyrosine decarboxylase 1) | 1 | -1.66 | -0.06
RhoL (Rho-like) | 1 | -1.63 | -2.55
ND-24 (NADH dehydrogenase (ubiquinone) 24 kDa subunit) | 1 | 0.27 | 0.45
CG5861 | 1 | 0.68 | 0.03
CG34297 | 1 | -0.95 | -1.88
nSMase (neutral sphingomyelinase) | 1 | 0.19 | 1.01
CG3119 | 1 | -0.26 | -0.51
Ace (Acetylcholine esterase) | 1 | 0.55 | 0.09
Ace (Acetylcholine esterase) | 2 | -0.09 | -0.08
CG13042 | 1 | -0.5 | 1.26
CG17294 | 1 | 0.07 | -0.54
BthD (BthD selenoprotein) | 1 | 0.14 | -0.62
Spn42Db (Serpin 42Db) | 1 | -0.05 | -0.76
Set8 (SET domain containing 8) | 1 | 0.58 | -0.41
CG15225 | 1 | 0.17 | 0.66
Gug (Grunge) | 1 | -0.39 | -0.09
MICU3 (Mitochondrial calcium uptake 3) | 1 | -0.63 | 0.22
MICU3 (Mitochondrial calcium uptake 3) | 2 | -0.21 | 0.77
Fatp3 (Fatty acid transport protein 3) | 1 | -0.88 | -0.07
CG6660 | 1 | 0.03 | -0.55
Ndf (Nucleosome-destabilizing factor) | 1 | -1.13 | -0.66
ERp44 (Endoplasmic reticulum protein 44) | 1 | -0.04 | 0.32
Ir56c (Ionotropic receptor 56c) | 1 | -0.17 | -0.05
SrpRalpha (Signal recognition particle receptor alpha) | 1 | 2.06 | 1.22
Osi13 (Osiris 13) | 1 | -0.64 | 1.27
Hsp68 (Heat shock protein 68) | 1 | 1.37 | 0
Osi6 (Osiris 6) | 1 | 0.38 | -0.04
CG13931 | 1 | 1.02 | 0.87
Drsl1 (Drosomycin-like 1) | 1 | -0.24 | -0.13
CG14684 | 1 | 0.61 | 0.56
OXA1L (OXA1L mitochondrial inner membrane protein) | 1 | 0.01 | -0.73
LanB2 (Laminin B2) | 1 | -0.06 | 0.24
drm (drumstick) | 1 | -0.18 | 0.33
CG11504 | 1 | 1.16 | 1.16
CG30355 | 1 | 0.47 | 0.44
CG3625 | 1 | -0.06 | -0.32
CG3625 | 2 | -0.25 | -0.61
CG3650 | 1 | -0.91 | -1.03
JIL-1 (JIL-1 kinase) | 1 | 4.22 | 3.73
BBS9 (Bardet-Biedl syndrome 9) | 1 | 0.72 | -2.15
baz (bazooka) | 1 | 0.25 | 1.05
l(1)G0196 (lethal (1) G0196) | 1 | -1.71 | -1.31
l(1)G0196 (lethal (1) G0196) | 2 | -0.77 | -0.12
Cap-G (Chromosome associated protein G) | 1 | 1.35 | 0.17
Cap-G (Chromosome associated protein G) | 2 | 0.49 | 0.65
Cap-G (Chromosome associated protein G) | 3 | 0.41 | -0.64
CG5768 | 1 | -0.2 | 0.74
Est-P (Esterase P) | 1 | 0.73 | 0.26
HmgD (High mobility group protein D) | 1 | 1.57 | -0.34
Nepl19 (Neprilysin-like 19) | 1 | 0.6 | -1.15
RasGAP1 (Ras GTPase activating protein 1) | 1 | -0.41 | -0.01
Lrch (Leucine-rich-repeats and calponin homology domain protein) | 1 | 0.77 | 0.72
Ag5r (Antigen 5-related) | 1 | 0.42 | 0.77
CG2701 | 1 | -0.12 | -0.02
CG33627 | 1 | 0.06 | 0.48
Fib (Fibrillarin) | 1 | -0.19 | -1.12
HPS4 (Hermansky-Pudlak Syndrome 4) | 1 | 0.37 | -0.5
Mtp (Microsomal triacylglycerol transfer protein) | 1 | -0.46 | 0.17
Ir56b (Ionotropic receptor 56b) | 1 | 0 | 0.11
ergic53 | 1 | 0.58 | 0.46
CG7606 | 1 | -0.77 | 0.26
CG7606 | 2 | 2.13 | 0.64
CG13069 | 1 | -0.22 | 0.42
HipHop (HP1-HOAP-interacting protein) | 1 | 0.33 | -0.19
scat (scattered) | 1 | 0.17 | 0.27
CG7465 | 1 | 0.6 | 0.49
CG7465 | 2 | 0.56 | 0.49
Acat1 (Acetyl-CoA acetyltransferase 1) | 1 | 0.65 | 0.87
Top3alpha (Topoisomerase 3alpha) | 1 | 0.09 | 1.13
NimB2 (Nimrod B2) | 1 | -0.07 | 0.04
Tom40 (Translocase of outer membrane 40) | 1 | -0.44 | 0.33
Nup50 (Nucleoporin 50kD) | 1 | 1.58 | 0.38
eIF4G1 (eukaryotic translation initiation factor 4G1) | 1 | -1.71 | -2.43
